For 2 molecules, binding results are on record in article PMC7592556.

Amino acid sequences for entries named in this document (tags omitted). Residues count along the entry.
His6-SUMO fusion protein of the complete Shank3 N-terminus (SPN-Ank, residues 1-348) (Q9JLU4, residues 1-348): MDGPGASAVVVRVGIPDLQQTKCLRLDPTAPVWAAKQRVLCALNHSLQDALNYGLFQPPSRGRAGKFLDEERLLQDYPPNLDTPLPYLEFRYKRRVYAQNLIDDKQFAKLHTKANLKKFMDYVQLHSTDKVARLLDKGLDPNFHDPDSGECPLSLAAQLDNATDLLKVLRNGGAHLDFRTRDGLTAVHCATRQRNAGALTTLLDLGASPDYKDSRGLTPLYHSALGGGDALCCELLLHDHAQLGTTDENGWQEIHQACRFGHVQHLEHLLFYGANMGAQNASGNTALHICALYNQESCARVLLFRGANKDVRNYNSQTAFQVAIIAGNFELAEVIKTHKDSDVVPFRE
His6-SUMO fusion protein of the Shank3 Ank repeats (residues 99-348) (Q9JLU4, residues 99-348): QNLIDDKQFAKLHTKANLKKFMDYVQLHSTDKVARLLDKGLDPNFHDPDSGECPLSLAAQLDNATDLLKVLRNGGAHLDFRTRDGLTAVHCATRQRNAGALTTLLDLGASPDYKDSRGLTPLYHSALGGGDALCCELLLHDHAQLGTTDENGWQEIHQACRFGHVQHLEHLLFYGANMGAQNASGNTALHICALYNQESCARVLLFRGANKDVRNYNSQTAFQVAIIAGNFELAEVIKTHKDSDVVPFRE

The target of assay [1] is His6-SUMO fusion protein of the complete Shank3 N-terminus (SPN-Ank, residues 1-348) (rat) (UniProt Q9JLU4). Briefly: affinity purification with mass spectrometry; His6-SUMO-Shank3 fragments (SPN-Ank or Ank only) coupled to NHS-Sepharose; mouse forebrain PSD fraction solubilised in DOC buffer (50 mM Tris pH 9.0, 1% Na-deoxycholate); 2 h, 5 washes; LC-MS/MS, LFQ intensities compared with a SUMO matrix; four purifications (two SPN-Ank, two Ank only); only the target purified.

Assay [2] deals with His6-SUMO fusion protein of the Shank3 Ank repeats (residues 99-348) (rat) (UniProt Q9JLU4). Described as above.

These are yes or no findings as the source states them, for the method shown. In cells and extracts the contact can be indirect. A yes stands for co-enrichment or nearness to the bait. Other partners may have been found.

B1: SRC kinase signaling inhibitor 1 (protein, UniProt Q9QWI6 1-1250)
chain: MQPWQCLRRFALAWWERTAEGRARSPREEVGPRDPGGRGEPDPERSSPPMLSADDAEYPREYRTLGGGGGGGSGGRRFSNVGLVHTSERRHTVIAAQSLEALSGLQKADADRKRDAFMDHLKSKYPQHALALRGQQDRMREQVGGWTVDPVCLLSSLCSHLHGDSTPSGAGQPAQQPNYWSFKTRSSRHTQGAQPGLADQAAKLSYASAESLETMSEAELPLGFSRMNRFRQSLPLSRSASQTKLRSPGVLFLQFGEETRRVHITHEVSSLDTLHALIAHMFPQKLTMGMLKSPNTAILIKDEARNVFYELEDVRDIQDRSIIKIYRKEPLYAAFPGSHLTNGDLRREMVYASRESSPTRRLNNLSPASHLASSSPPPGLPSGLPSGLPSGSPSRSRLSYAGGRPPSYAGSPVHHAAERLGGAPTGQGVSPSPSAILERRDVKPDEDLAGKAGGMVLVKGEGLYADPYGLLHEGRLSLAAAAETHSHTRARAACTSGVPCALSAPTPLPRCSPTWRTRCTRRALAALYGDGYGFRLPPSSPQKLADVSAPSGGPPPPHSPYSGPPSRGSPVRQSFRKDSGSSSVFAESPGGKARSTGSASTAGAPPSELFPGPGERSLVGFGPPVPAKDTETRERMEAMEKQIASLTGLVQSALLRGSEPETPSEKVEGSNGAATPSAPVCGSGSKSSGATPVSGPPPPSASSTPAGQPTAVSRLQMQLHLRGLQNSASDLRGQLQQLRNVQLQNQESVRALLKPTEADVSMRVSEAARRQEDPLQRQRTLVEEERLRYLNDEELITQQLNDLEKSVEKIQRDVAHNHRLMPGPELEEKALVLKQLGETLTELKAHFPGLQSKMRVVLRVEVEAVKFLKEEPQRLDGLLKRCRGVTDTLAQIRRQVDEGMWPPPNNLLNQSPKKVAAETDFSKGLDFEIPPPSPPLNLHELSGPAEGTPLTPKSTNPTKCLDASSKRNTDKAVSVEAAERDWEEKRAALTQYSAKDINRLLEETQAELLKAIPDLDCASKTHPGPAPTPDHKPPKAPHGQKAAPRTEPSGRRGSDELTVPRYRTEKPSKSPPPPPPRRSFPSSHGLTTTRTGEVVVTSKKDSVFIKKAESEELEVQKPQVKLRRAVSEVVRPASTPPIMASAIKDEDDEERIIAELESGGSSVPPMKVVTPGASRLKAAQGPAGSPDKGKHGKQRTEYMRIQAQQQATKPSKEVSGPNETSSPGSEKPSGSRTSIPVLTSFGARNSSISF
On to B1, for which the binding entry in assay [1] and in assay [2] was “binds” each time.

B2: Disks large homolog 3 (protein, UniProt P70175 1-849)
chain: MHKHQHCCKCPECYEVTRLAALRRLEPPGYGDWQVPDPYGPSGGNGASSGYGGYSSQTLPSQAGATPTPRTKAKLIPTGRDVGPVPPKPVPGKSTPKLNGSGPGWWPECTCTNRDWYEQASPAPLLVNPEALEPSLSVNGSDGMFKYEEIVLERGNSGLGFSIAGGIDNPHVPDDPGIFITKIIPGGAAAMDGRLGVNDCVLRVNEVDVSEVVHSRAVEALKEAGPVVRLVVRRRQPPPETIMEVNLLKGPKGLGFSIAGGIGNQHIPGDNSIYITKIIEGGAAQKDGRLQIGDRLLAVNNTNLQDVRHEEAVASLKNTSDMVYLKVAKPGSIHLNDMYAPPDYASTFTALADNHISHNSSLGYLGAVESKVTYPAPPQVPPTRYSPIPRHMLAEEDFTREPRKIILHKGSTGLGFNIVGGEDGEGIFVSFILAGGPADLSGELRRGDRILSVNGVNLRNATHEQAAAALKRAGQSVTIVAQYRPEEYSRFESKIHDLREQMMNSSMSSGSGSLRTSEKRSLYVRALFDYDRTRDSCLPSQGLSFSYGDILHVINASDDEWWQARLVTPHGESEQIGVIPSKKRVEKKERARLKTVKFHARTGMIESNRDFPGLSDDYYGAKNLKGVTSNTSDSESSSKGQEDAILSYEPVTRQEIHYARPVIILGPMKDRVNDDLISEFPHKFGSCVPHTTRPRRDNEVDGQDYHFVVSREQMEKDIQDNKFIEAGQFNDNLYGTSIQSVRAVAERGKHCILDVSGNAIKRLQQAQLYPIAIFIKPKSIEALMEMNRRQTYEQANKIFDKAMKLEQEFGEYFTAIVQGDSLEEIYNKIKQIIEDQSGHYIWVPSPEKL
On to B2, for which the binding result in assay [1] and in assay [2] was “binds” throughout.
